Data as given in PubChem BioAssay AID652272 (Drosophila RNAi Screening Center, 2013)

- Purpose: 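Finding fly genes that regulate Hedgehog signal transduction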 (primary screen)
- Cell system: Drosophila clone 8 (Cl8) cells
- Reagents: long dsRNA against Drosophila genes
- Read-out: 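Firefly light from a Hedgehog-responsive ptc promoter reporter and Renilla reference light, both read on a plate reader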
- Reading the numbers: firefly Hh reporter signal: higher = more ptc reporter light; Renilla reference signal: higher = more Renilla control light
- Call rule: 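Hit when the z-score averaged over two replicates is under -2 or over +3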
- Meaning of the calls: active = hit: reporter lowered or raised; inactive = not a hit
The screen tested about 21,000 reagents; this is an unselected part of those with a known target gene and a result. Of all reagents, 503 (2.4%) are marked active. 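Raw plate light values, not normalised; calls rest on replicate z-scores that were not deposited; hits include reporter decreases as well as increases.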 A plus sign joins genes that one reagent is predicted to hit. Not given: the amount of reagent, the time to read-out.

{"predicted target":"CG32148","DRSC id":"DRSC09338","firefly Hh reporter signal, replicate 1":2.22e5,"Renilla reference signal, replicate 1":5660,"activity call":"inactive"}
{"predicted target":"RhoGAP68F","DRSC id":"DRSC10717","firefly Hh reporter signal, replicate 1":71112,"firefly Hh reporter signal, replicate 2":32276,"Renilla reference signal, replicate 1":3437,"Renilla reference signal, replicate 2":1421,"activity call":"inactive"}
{"predicted target":"CG3288","DRSC id":"DRSC11745","firefly Hh reporter signal, replicate 1":1.27e5,"firefly Hh reporter signal, replicate 2":1.34e5,"Renilla reference signal, replicate 1":4659,"Renilla reference signal, replicate 2":3904,"activity call":"inactive"}
{"predicted target":"sna","DRSC id":"DRSC03613","firefly Hh reporter signal, replicate 1":88605,"firefly Hh reporter signal, replicate 2":62770,"Renilla reference signal, replicate 1":2524,"Renilla reference signal, replicate 2":4864,"activity call":"inactive"}
{"predicted target":"t-Grip91","DRSC id":"DRSC01506","firefly Hh reporter signal, replicate 1":1.08e5,"firefly Hh reporter signal, replicate 2":2.13e5,"Renilla reference signal, replicate 1":3013,"Renilla reference signal, replicate 2":10410,"activity call":"inactive"}
{"predicted target":"Orc1","DRSC id":"DRSC07496","firefly Hh reporter signal, replicate 1":4.69e5,"firefly Hh reporter signal, replicate 2":73889,"Renilla reference signal, replicate 1":4045,"Renilla reference signal, replicate 2":4045,"activity call":"inactive"}
{"predicted target":"CG3823","DRSC id":"DRSC18325","firefly Hh reporter signal, replicate 1":76517,"firefly Hh reporter signal, replicate 2":2.05e5,"Renilla reference signal, replicate 1":2209,"Renilla reference signal, replicate 2":6547,"activity call":"inactive"}
{"predicted target":"CG8292","DRSC id":"DRSC03082","firefly Hh reporter signal, replicate 1":88009,"firefly Hh reporter signal, replicate 2":43882,"Renilla reference signal, replicate 1":2201,"Renilla reference signal, replicate 2":4310,"activity call":"inactive"}
{"predicted target":"Dic61B","DRSC id":"DRSC08588","firefly Hh reporter signal, replicate 1":54488,"firefly Hh reporter signal, replicate 2":41968,"Renilla reference signal, replicate 1":3626,"Renilla reference signal, replicate 2":2262,"activity call":"inactive"}
{"predicted target":"CG7115","DRSC id":"DRSC02000","firefly Hh reporter signal, replicate 1":1.48e5,"firefly Hh reporter signal, replicate 2":51653,"Renilla reference signal, replicate 1":3623,"Renilla reference signal, replicate 2":6021,"activity call":"inactive"}
{"predicted target":"CG42809","DRSC id":"DRSC02532","firefly Hh reporter signal, replicate 1":1.27e5,"firefly Hh reporter signal, replicate 2":58322,"Renilla reference signal, replicate 1":3504,"Renilla reference signal, replicate 2":5664,"activity call":"inactive"}
{"predicted target":"sphe","DRSC id":"DRSC20203","firefly Hh reporter signal, replicate 1":1.08e5,"firefly Hh reporter signal, replicate 2":1.26e5,"Renilla reference signal, replicate 1":1928,"Renilla reference signal, replicate 2":3019,"activity call":"inactive"}
{"predicted target":"CG8788","DRSC id":"DRSC07267","firefly Hh reporter signal, replicate 1":97140,"firefly Hh reporter signal, replicate 2":68921,"Renilla reference signal, replicate 1":2169,"Renilla reference signal, replicate 2":5292,"activity call":"inactive"}
{"predicted target":"yellow-e3","DRSC id":"DRSC15170","firefly Hh reporter signal, replicate 1":72384,"firefly Hh reporter signal, replicate 2":86968,"Renilla reference signal, replicate 1":2160,"Renilla reference signal, replicate 2":1760,"activity call":"inactive"}
{"predicted target":"KaiR1D","DRSC id":"DRSC15516","firefly Hh reporter signal, replicate 1":5.61e5,"firefly Hh reporter signal, replicate 2":93483,"Renilla reference signal, replicate 1":29143,"Renilla reference signal, replicate 2":2224,"activity call":"inactive"}
{"predicted target":"Rs1","DRSC id":"DRSC05945","firefly Hh reporter signal, replicate 1":51757,"firefly Hh reporter signal, replicate 2":54720,"Renilla reference signal, replicate 1":2812,"Renilla reference signal, replicate 2":2625,"activity call":"inactive"}
{"predicted target":"Tehao","DRSC id":"DRSC03449","firefly Hh reporter signal, replicate 1":1.01e5,"firefly Hh reporter signal, replicate 2":42529,"Renilla reference signal, replicate 1":2685,"Renilla reference signal, replicate 2":4188,"activity call":"inactive"}
{"predicted target":"CG7781","DRSC id":"DRSC03068","firefly Hh reporter signal, replicate 1":1.04e5,"firefly Hh reporter signal, replicate 2":77290,"Renilla reference signal, replicate 1":2904,"Renilla reference signal, replicate 2":6073,"activity call":"inactive"}
{"predicted target":"elgi","DRSC id":"DRSC10242","firefly Hh reporter signal, replicate 1":1.00e5,"firefly Hh reporter signal, replicate 2":50032,"Renilla reference signal, replicate 1":3971,"Renilla reference signal, replicate 2":1884,"activity call":"inactive"}
{"predicted target":"CG3546","DRSC id":"DRSC18308","firefly Hh reporter signal, replicate 1":89184,"firefly Hh reporter signal, replicate 2":1.92e5,"Renilla reference signal, replicate 1":3014,"Renilla reference signal, replicate 2":6864,"activity call":"inactive"}
{"predicted target":"CG32669","DRSC id":"DRSC18864","firefly Hh reporter signal, replicate 1":4.58e5,"firefly Hh reporter signal, replicate 2":2.09e5,"Renilla reference signal, replicate 1":24970,"Renilla reference signal, replicate 2":4776,"activity call":"inactive"}
{"predicted target":"CG11112","DRSC id":"DRSC06038","firefly Hh reporter signal, replicate 1":84913,"firefly Hh reporter signal, replicate 2":53085,"Renilla reference signal, replicate 1":2064,"Renilla reference signal, replicate 2":4213,"activity call":"inactive"}
{"predicted target":"Lst8","DRSC id":"DRSC18262","firefly Hh reporter signal, replicate 1":73562,"firefly Hh reporter signal, replicate 2":53234,"Renilla reference signal, replicate 1":2092,"Renilla reference signal, replicate 2":1170,"activity call":"inactive"}
{"predicted target":"CG2126","DRSC id":"DRSC15418","firefly Hh reporter signal, replicate 1":84376,"firefly Hh reporter signal, replicate 2":2.11e5,"Renilla reference signal, replicate 1":2934,"Renilla reference signal, replicate 2":6747,"activity call":"inactive"}
{"predicted target":"Impbeta11 + asRNA:CR43429","DRSC id":"DRSC07525","firefly Hh reporter signal, replicate 1":75091,"firefly Hh reporter signal, replicate 2":32348,"Renilla reference signal, replicate 1":2345,"Renilla reference signal, replicate 2":1504,"activity call":"inactive"}
{"predicted target":"shps","DRSC id":"DRSC14614","firefly Hh reporter signal, replicate 1":4.96e5,"firefly Hh reporter signal, replicate 2":84838,"Renilla reference signal, replicate 1":22646,"Renilla reference signal, replicate 2":2388,"activity call":"inactive"}
{"predicted target":"CG4424","DRSC id":"DRSC15576","firefly Hh reporter signal, replicate 1":91568,"firefly Hh reporter signal, replicate 2":55244,"Renilla reference signal, replicate 1":3773,"Renilla reference signal, replicate 2":2368,"activity call":"inactive"}

Laid out differently: 2 of the entries above.
{"predicted target": "t-Grip91", "DRSC id": "DRSC01506", "firefly Hh reporter signal, replicate 1": 1.08e5, "firefly Hh reporter signal, replicate 2": 2.13e5, "Renilla reference signal, replicate 1": 3013, "Renilla reference signal, replicate 2": 10410, "activity call": "inactive"}
{"predicted target": "Orc1", "DRSC id": "DRSC07496", "firefly Hh reporter signal, replicate 1": 4.69e5, "firefly Hh reporter signal, replicate 2": 73889, "Renilla reference signal, replicate 1": 4045, "Renilla reference signal, replicate 2": 4045, "activity call": "inactive"}
